Experimental data published in US20080226630A1.

B1: antibody 835 (clone 835) (antibody, human IgG1, kappa, V domains shown)
VH: QVQLVQSGAEVKRPGASVKVSCKASGYTFISYGFSWVRQAPGQGLEWMGWSSVYNGDTNYAQKFHGRVNMTTDTSTNTAYMELRGLRSDDTAVYFCARDRNVVLLPAAPFGGMDVWGQGTMVTVSS
VL: DIQLTQSPSFLSASLEDRVTITCRASQGISSYLAWYQQKPGKAPKLLLDAASTLQSGVPSRFSGSGSGTEFTLTISSLQPEDFATYYCQQLNSYPRTFGQGTKVDIKR
B2: antibody 816 (clone 816) (antibody, human IgG1, kappa, V domains shown)
VH: EVQLLESGGGLVQPGGSLRLSCVASGFTFSTYAMTWVRQAPGKGLEWVSVIRASGDSEIYADSVRGRFTISRDNSKNTVFLQMDSLRVEDTAVYFCANIGQRRYCSGDHCYGHFDYWGQGTLVTVSS
VL: DIVMTQSPLSLPVTPGEPASISCRSSQSLLHSDGRYYVDWYLQKPGQSPHLLIYLASNRASGVPDRFTGSGSGTDFTLKISRVEAEDVGVYYCMQGLHTPWTFGQGTKVDIKR

Molecular target: RSV protein G (human respiratory syncytial virus, strain not stated)
Test: ELISA, FLISA and/or Biacore

Row | Binder | binding
1 | B1 | binds
2 | B2 | binds

These are yes or no findings as the source states them, for the method shown. A result given as binding can be weak or reduced; the word gives no strength.
